Measurements taken from US20210171576A1, “METHODS FOR TREATING CANCER WITH ACYLDEPSIPEPTIDE ANALOGS” (priority 2018, published 2021).

Tested on: mitochondrial proteins of HEK293 T-REx cells
Assay: Mitochondrial proteome profiling for WT and CLPP^−/− (fold change CLPP^−/−/WT)
Parameters: species or system human
Conditions: MaxQuant total peptide ion intensity
[1] = fold change of mitochondrial protein detected in CLPP knockout compared to WT HEK293 T-REx cells

Substance	Avg. fold change (CLPP KO/WT) [1]	Avg. fold change (CLPP KO/WT) ([…])
AIFM1	−1.48	
ATP5B	1.45	
ATP5H	1.09	
CKMT1A	−1.44	
CLPX	−1.09	
DLST	1.46	
HADHA	1.40	
HSPA9	1.08	
HSPE1	−1.14	
PDHX	−2.36	
POLRMT	1.79	
RHOT1	−3.16	
SDHA		5.48
SLC25Al	2.58	
TIMM13	−1.70	
TOMM20	3.78	
